Measured values: doi:10.1101/2023.09.21.558844
These are yes or no findings as the source states them, for the method shown. Binding seen in cells or lysates may run through a third protein. These calls come from enrichment with a bait or labelling near it, and not all partners need be listed. Sequences can lack the tags named with a protein.

Target: T1, Ume6 tagged at the carboxy terminus with TurboID (TurboID-3xMyc) (S. cerevisiae) (UniProt P39001)
T1 sequence: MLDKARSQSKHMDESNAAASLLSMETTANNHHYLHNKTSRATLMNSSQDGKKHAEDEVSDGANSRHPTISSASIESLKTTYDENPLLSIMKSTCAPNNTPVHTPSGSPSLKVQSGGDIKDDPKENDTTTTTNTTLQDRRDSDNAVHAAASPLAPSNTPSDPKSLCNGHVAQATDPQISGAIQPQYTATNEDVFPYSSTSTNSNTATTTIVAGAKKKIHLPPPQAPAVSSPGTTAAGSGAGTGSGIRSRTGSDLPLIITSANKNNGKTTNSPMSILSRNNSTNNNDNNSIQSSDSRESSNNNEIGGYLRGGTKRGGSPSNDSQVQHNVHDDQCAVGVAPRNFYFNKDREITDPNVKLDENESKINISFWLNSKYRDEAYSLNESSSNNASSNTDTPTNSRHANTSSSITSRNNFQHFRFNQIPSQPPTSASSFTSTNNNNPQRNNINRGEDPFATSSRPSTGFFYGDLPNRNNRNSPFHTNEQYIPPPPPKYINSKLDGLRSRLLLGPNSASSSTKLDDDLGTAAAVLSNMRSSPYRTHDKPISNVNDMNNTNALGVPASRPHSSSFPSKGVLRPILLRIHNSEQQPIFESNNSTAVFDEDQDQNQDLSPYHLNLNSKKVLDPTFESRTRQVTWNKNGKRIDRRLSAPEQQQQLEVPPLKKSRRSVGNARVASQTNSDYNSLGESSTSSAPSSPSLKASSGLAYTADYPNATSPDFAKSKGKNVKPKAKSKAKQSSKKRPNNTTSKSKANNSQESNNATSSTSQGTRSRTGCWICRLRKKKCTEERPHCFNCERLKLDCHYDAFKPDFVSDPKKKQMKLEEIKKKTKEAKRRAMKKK
Assay: proximity labelling

binding: binds
B1: Spt5 (protein, UniProt P27692 1-1063)
chain: MSDNSDTNVSMQDHDQQFADPVVVPQSTDTKDENTSDKDTVDSGNVTTTESTERAESTSNIPPLDGEEKEAKSEPQQPEDNAETAATEQVSSSNGPATDDAQATLNTDSSEANEIVKKEEGSDERKRPREEDTKNSDGDTKDEGDNKDEDDDEDDDDDDDDEDDDDEAPTKRRRQERNRFLDIEAEVSDDEDEDEDEEDSELVREGFITHGDDEDDEASAPGARRDDRLHRQLDQDLNKTSEEDAQRLAKELRERYGRSSSKQYRAAAQDGYVPQRFLLPSVDTATIWGVRCRPGKEKELIRKLLKKKFNLDRAMGKKKLKILSIFQRDNYTGRIYIEAPKQSVIEKFCNGVPDIYISQKLLIPVQELPLLLKPNKSDDVALEEGSYVRIKRGIYKGDLAMVDQISENNLEVMLKIVPRLDYGKFDEIDPTTQQRKSRRPTFAHRAPPQLFNPTMALRLDQANLYKRDDRHFTYKNEDYIDGYLYKSFRIQHVETKNIQPTVEELARFGSKEGAVDLTSVSQSIKKAQAAKVTFQPGDRIEVLNGEQRGSKGIVTRTTKDIATIKLNGFTTPLEFPISTLRKIFEPGDHVTVINGEHQGDAGLVLMVEQGQVTFMSTQTSREVTITANNLSKSIDTTATSSEYALHDIVELSAKNVACIIQAGHDIFKVIDETGKVSTITKGSILSKINTARARVSSVDANGNEIKIGDTIVEKVGSRREGQVLYIQTQQIFVVSKKIVENAGVFVVNPSNVEAVASKDNMLSNKMDLSKMNPEIISKMGPPSSKTFQQPIQSRGGREVALGKTVRIRSAGYKGQLGIVKDVNGDKATVELHSKNKHITIDKHKLTYYNREGGEGITYDELVNRRGRVPQARMGPSYVSAPRNMATGGIAAGAAATSSGLSGGMTPGWSSFDGGKTPAVNAHGGSGGGGVSSWGGASTWGGQGNGGASAWGGAGGGASAWGGQGTGATSTWGGASAWGNKSSWGGASTWASGGESNGAMSTWGGTGDRSAYGGASTWGGNNNNKSTRDGGASAWGNQDDGNRSAWNNQGNKSNYGGNSTWGGH
